# Measured values reported in the supplement of paper PMC5949888.
# Most values lie at the floor of the assay. Slopes are relative: functional sequences can read slightly below zero.
# Tested on: Saccharomyces cerevisiae PS128 hsf1 delta, HSF1(1-493) fusion
# Assay: growth estimate (transactivation domain function in HSF1 fusion, heat-shock survival) (a.u. (slope of normalised read count over time)); higher = stronger growth at 37°C, i.e. more transactivation activity
# Settings: library: random library
row,Substance,growth estimate
1,PGN,< -0.25
2,PGNIFTKALTNLYRLSSRDA,< -0.25
3,PGPGVSSCISAQCAFESLVI,< -0.25
4,PGPPPSSACDHRPV,< -0.25
5,PGQLLTIRSMPESWAGEFSR,< -0.25
6,PGQRNRTPRNPDSSRL,-0.246
7,PGRCLPTRA,< -0.25
8,PGRHAVG,< -0.25
9,PGRMKGAR,< -0.25
10,PGRYSVKKYTSAKPE,< -0.25
11,PGSAPDRLEILIAGWGS,< -0.25
12,PGSARSEVCRAGN,< -0.25
13,PGSATSVRGILSHV,-0.214
14,PGTFERATAGIGLEIWVDGF,< -0.25
15,PGTFNILVCVSRQDAIASPS,< -0.25
16,PGTGGYFGAAVPEQASTLWC,< -0.25
17,PGTMRDRLTCYWSQETSGLS,< -0.25
18,PGTNPSRQWGVMDFCNDTSY,< -0.25
19,PGTSRHVIMGPRLIARTR,< -0.25
20,PGVEFHPRGTPV,< -0.25
21,PGVPSKVLLHASVDVRPAAR,< -0.25
22,PGVPWRWQIVSS,< -0.25
23,PGWDNSYTKSIP,< -0.25
24,PGWTDLIIWCLKVNSHRGDV,< -0.25
25,PGYRRLKMSSVDTP,< -0.25

row,Substance,growth estimate
1,PHERGKKSDGIMP,< -0.25
2,PHGSMSVYCI,< -0.25
3,PHKADGNDVFVAVGTPRVD,< -0.25
4,PHLGRSGVRGNHMPGFSVIH,< -0.25
5,PHLPFRVNHTTCLLRVAFSG,< -0.25
6,PHLW,< -0.25
7,PHNFCM,< -0.25
8,PHPSHRDCWAVGQIVLRAWI,< -0.25
9,PHQTQEVCACPLGGNRGSER,< -0.25
10,PHSDSDARRVLPYLTTAL,< -0.25
11,PHSPIGLPYW,< -0.25
12,PHVYN,< -0.25
13,PICRLGNTIFNRCNSALLNQ,< -0.25
14,PIGALRDQHGPEVLPLSFIS,< -0.25
15,PIHDKFAARRRHDCCLLRTF,< -0.25
16,PIHYGQAL,< -0.25
17,PIKFRHPAASRLWIHKSAAS,< -0.25
18,PILLTKLWVANASERLVVYW,< -0.25
19,PILRGIGYIFGRLGTAGVSS,< -0.25
20,PIMILDKPVRGLVETVTF,< -0.25
21,PIPPIRES,< -0.25
22,PIPRYLWRRIAVFQRVS,-0.231
23,PIPSDDRRARGRTPRGVTGR,< -0.25
24,PIQISGRAACLYQSRASLSS,< -0.25
25,PIQVGDQLRFDLTGRVVVLP,< -0.25

row,Substance,growth estimate
1,PIRSPVVLVMEQGLDMTGLS,< -0.25
2,PISVSVCNVPPNDAREGSRL,< -0.25
3,PITCYTRKVLSRGPGQEFRS,< -0.25
4,PITGRPPRGAVCSMPLPAYA,< -0.25
5,PIV,< -0.25
6,PIVPTGYSI,< -0.25
7,PIVSRAQNVVDC,< -0.25
8,PIVWLRQFK,-0.203
9,PIWTWFFGR,< -0.25
10,PIYYGVQEVCPDAHFCPPHL,< -0.25
11,PKGGFRGGPRLLFLVCKTHS,< -0.25
12,PKGSE,< -0.25
13,PKGYQPINNTAAPLARLD,< -0.25
14,PKHLPALTYIDIFRLGVQRT,< -0.25
15,PKIGLTKPPSRNIIVS,< -0.25
16,PKMPKQEPGPAMRPTS,< -0.25
17,PKND,< -0.25
18,PKRESEVRGSCSRALVLAYW,< -0.25
19,PKRLIYPR,< -0.25
20,PKRNTCP,< -0.25
21,PKRTPISNKSMVR,< -0.25
22,PKRTSDSLESGVQ,< -0.25
23,PKS,< -0.25
24,PKTMRSRPTEVAGVALGTGF,< -0.25
25,PKVAAKGLIATCDMEG,< -0.25

row,Substance,growth estimate
1,PKVGILHVCLGQNPKLPHVW,< -0.25
2,PKVGKLQPGGYVGHHNRGLV,< -0.25
3,PKYLLLHYEA,-0.209
4,PLARP,< -0.25
5,PLCKRVDIHALPFNSYPDRT,< -0.25
6,PLCVV,< -0.25
7,PLCYPSREESTNCGLALHRL,< -0.25
8,PLCYRSSNI,-0.0944
9,PLDAKPTDDDCSIEIGSPGD,< -0.25
10,PLDGE,< -0.25
11,PLEFLGALVP,< -0.25
12,PLEVTAETGPIHGVESCNLW,< -0.25
13,PLGG,-0.24
14,PLGIAIYSQLQCLWYTEARS,< -0.25
15,PLGIGCLASI,< -0.25
16,PLGLLDKANSCS,< -0.25
17,PLGRPALLVRVFSLRLHLLN,< -0.25
18,PLIILASKLQVQSVVPYVGQ,-0.203
19,PLIKSGRGNWESTRQLSRIM,< -0.25
20,PLIRACVSPIYH,< -0.25
21,PLIVGQNAHSAHVRGRKCCA,< -0.25
22,PLKRPGVAASGTLYGLNRVS,< -0.25
23,PLLG,< -0.25
24,PLLGLHWSKGLSVLWQ,-0.101
25,PLLHQESHRVCPGHTNSLDR,-0.228

row,Substance,growth estimate
1,PLLLESLCSTSRHFAGPLWP,< -0.25
2,PLLPVLDFRVYCAIVPYD,< -0.25
3,PLLRRYLVS,< -0.25
4,PLMRVSYSRHSKESAYVLFL,< -0.25
5,PLNEKFIATRDWASVA,< -0.25
6,PLPGPFTRL,< -0.25
7,PLPLLGHDLPALL,< -0.25
8,PLRMEHSIVVWLNFFSTIPA,< -0.25
9,PLRSVNLRPFRLKPTI,< -0.25
10,PLSCICHNTVRELNFSRSPA,< -0.25
11,PLSGNGQVRLPSRGNPFNFN,< -0.25
12,PLTGVI,< -0.25
13,PLTQFSCLNPPSRFRLGGVS,< -0.25
14,PLVAAYFRQFYCKVLCILRG,-0.197
15,PLVPG,< -0.25
16,PLVRRVTRTLL,< -0.25
17,PLYHAGELGKARGWCPKRHG,< -0.25
18,PMADDSGLEWVVF,< -0.25
19,PMAVAGRSA,< -0.25
20,PMAYRG,< -0.25
21,PMDVAISDNKA,< -0.25
22,PMELQSLRDVRESIQP,< -0.25
23,PMFQAGEGMRDSDGLMGTSE,< -0.25
24,PMG,< -0.25
25,PMLGYTRLRC,< -0.25

# Some of the entries so far, tab-delimited:
row	Substance	growth estimate
6	PHLW	< -0.25
8	PIVWLRQFK	-0.203

# The list continues.

row,Substance,growth estimate
1,PMRDL,< -0.25
2,PMSAESCTKARLDILLSKIL,< -0.25
3,PNASNVPQWSWELWYGTAHV,-0.196
4,PNGLFSHGEGHAVTESNGST,< -0.25
5,PNGSLVQSHFVWTLSLLIIV,< -0.25
6,PNIKPRKERRDKGALRCQCL,< -0.25
7,PNIPNRAELTQEYFSGPAI,< -0.25
8,PNKLLIQRPEADRCGLLLGG,< -0.25
9,PNLLTPLCANRGG,< -0.25
10,PNLRETLKLGSVDL,< -0.25
11,PNLVPLLLPTRIAVHFTSSA,< -0.25
12,PNPHVKAALIVLLALGHFSR,< -0.25
13,PNPMASTKTHVGFSSDKSVG,< -0.25
14,PNPRHSANKRHDLTSAA,< -0.25
15,PNRCSGCACANHRRFQSYR,< -0.25
16,PNRDCWR,-0.25
17,PNRSSVPSGTRVH,< -0.25
18,PNRWSVVTVLNRPHGQAVRP,< -0.25
19,PNTFQ,< -0.25
20,PNTRRVWLLVGALSAPYARG,< -0.25
21,PPATQREVLWVCTPYVYHHD,< -0.25
22,PPAVEY,< -0.25
23,PPCIVTIITAAGVRSGQTSV,< -0.25
24,PPCSPH,< -0.25
25,PPDGMELGRQQECTLDQPLL,< -0.25

row,Substance,growth estimate
1,PPERSTLRGLWVAPGYPDVA,< -0.25
2,PPESEFCQRRVSRGGNCVLT,-0.0016
3,PPGANPCG,< -0.25
4,PPGAWVPLGKVVPKVAWRVA,< -0.25
5,PPGDNGKGQHRALAGLVF,< -0.25
6,PPGHGRSDTNVREQIDERRR,< -0.25
7,PPGPACVISIDCGVSHFRQQ,< -0.25
8,PPGVRKGSQE,< -0.25
9,PPH,< -0.25
10,PPK,< -0.25
11,PPKGPPGQTGVVRGYSALPR,< -0.25
12,PPKTWLEGACDCGKLKVLRV,< -0.25
13,PPKVISVGSRNGWANLTISL,< -0.25
14,PPLGYTASETGCTYGMTLVL,< -0.25
15,PPLRLCRN,< -0.25
16,PPPCHRSWLVPGTKSRRTKL,< -0.25
17,PPREHRKDIRLPGDLY,< -0.25
18,PPRIPIVPVPA,< -0.25
19,PPRVYEHAGHRLISGTGDGA,< -0.25
20,PPSLVGLVWVPDRSININRR,< -0.25
21,PPSSPTVQGREASITCCE,< -0.25
22,PPT,< -0.25
23,PPVLTVDD,< -0.25
24,PPVRARAIVALVCSERTAPA,< -0.25
25,PQATGL,< -0.25

# Look-ups from the results shown:
# Under growth estimate, PKS has < -0.25
# Under growth estimate, PLSCICHNTVRELNFSRSPA has < -0.25
# Under growth estimate, PNTRRVWLLVGALSAPYARG has < -0.25
# Under growth estimate, PLCKRVDIHALPFNSYPDRT has < -0.25
# Under growth estimate, PKRNTCP has < -0.25

# (next part)

row,Substance,growth estimate
1,PQDRTTAFELQVWFFDLRNR,< -0.25
2,PQGGPSH,< -0.25
3,PQHLGQEPKGQRSEGMATFR,< -0.25
4,PQIQDRGKAI,< -0.25
5,PQLNPDSPPN,-0.247
6,PQNFATMC,< -0.25
7,PQPRGYLRFGGPISNVRVLC,< -0.25
8,PQRGKSPVLTVRREHVEDRL,< -0.25
9,PQRGPRQKVRWDRVQD,< -0.25
10,PQSIANTELARYSRTFTQ,< -0.25
11,PQSYTTFGRVLSGPLNVTCA,< -0.25
12,PQTVLSLSLESRFCKNRHHP,< -0.25
13,PQTWATVLD,< -0.25
14,PQVGLRVSHRVSSAGRRPCY,< -0.25
15,PQWLSVPC,< -0.25
16,PRAILVPHR,< -0.25
17,PRDILSRRKAASPHEGVISN,< -0.25
18,PREDSVMVITSE,< -0.25
19,PREHSQGGFEARNGLLHV,< -0.25
20,PRELAILIVAGPGALCNQYD,< -0.25
21,PREPLVGIGGFAPPSL,< -0.25
22,PRFK,< -0.25

# Random excerpt: three records from the list.
row,Substance,growth estimate
1,PQDRTTAFELQVWFFDLRNR,< -0.25
2,PQGGPSH,< -0.25
15,PQWLSVPC,< -0.25
